At least one structure is not confirmed: it was looked up by name or label, or the drawing left a doubt.
Assays:
Type in all cases: in vivo, human
[1] = system: men and women with moderate peripheral GnRH levels; assay: Randomized controlled trial in subjects with peripheral GnRH above 160 pg/mL (age related inflammation); settings: Elagolix combined with gonadal replacement vs placebo, follow up of 5 years
[2] = system: patient with seropositive rheumatoid arthritis; assay: Example treatment of RA using oral GnRH antagonists (DAS); settings: oral daily for 12 weeks, assessment at 4 months
Protocol: • person with seropositive rheumatoid arthritis with disease duration of 10 years. • Fulfills ACR 2010 classification criteria for rheumatoid arthritis. Experimental Treatment • Is offered experimental GnRH antagonist therapy, Elagolix 550 mg daily for 12 weeks.
• person with seropositive rheumatoid arthritis with disease duration of 10 years. • Fulfills ACR 2010 classification criteria for rheumatoid arthritis. Experimental Treatment • Is offered experimental GnRH antagonist therapy, Relugolix 250 mg daily for 12 weeks.
• person with seropositive rheumatoid arthritis with disease duration of 20 years. • Fulfills ACR 2010 classification criteria for rheumatoid arthritis. Experimental Treatment • Treated with a spiroindoline derivative as a GnRH antagonist orally 200 mg daily for 12 weeks.

[3] = system: patient with systemic sclerosis (scleroderma); assay: Example treatment of systemic sclerosis using Elagolix; settings: SSc patient
[4] = Elagolix 600 mg daily for 12 weeks

In the case of `COc1cccc(-c2c(C)n(Cc3c(F)cccc3C(F)(F)F)c(=O)n(C[C@H](NCCCC(=O)O)c3ccccc3)c2=O)c1F` [Elagolix], the myocardial infarction [1] is reported as “reduction”, the “trial primary end point of vascular events” value [1] is reported as “significant reduction” and the “Disease activity score (DAS) reduction” value [2] is reported as “over 0.6 units”. For the same molecule, the Digital ulcers [3, 4] was 2, the Health assessment questionnaire [3, 4] was 1.0 and the Digital ulcers ([3]; before Elagolix) was 6. For the same molecule, the Health assessment questionnaire ([3]; before Elagolix) was 2.0.
